Results as given in patent US20060204957A1, “Mta1s, a steriod hormone receptor corepressor” (priority 2002, published 2006).
Results are given in words; binding and its absence hold for the method and conditions named. Some binding calls cover weakened binding; strength is not graded here.

Key:
LMO4 = target: T1, LMO4 (UniProt P61968); assay: yeast two-hybrid screen, carboxy terminus of MTA1s as bait
T1 sequence (looked up): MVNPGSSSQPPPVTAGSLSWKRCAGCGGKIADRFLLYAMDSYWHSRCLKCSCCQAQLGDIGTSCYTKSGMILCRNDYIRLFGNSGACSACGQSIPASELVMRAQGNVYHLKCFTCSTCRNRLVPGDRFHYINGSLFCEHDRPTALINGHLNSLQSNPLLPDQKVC

[1] = target: T2, bifunctional ATP sulfurylase/adenosine 5'-phosphosulfate (APS) kinase (UniProt O43252); assay: as above
T2 sequence (looked up): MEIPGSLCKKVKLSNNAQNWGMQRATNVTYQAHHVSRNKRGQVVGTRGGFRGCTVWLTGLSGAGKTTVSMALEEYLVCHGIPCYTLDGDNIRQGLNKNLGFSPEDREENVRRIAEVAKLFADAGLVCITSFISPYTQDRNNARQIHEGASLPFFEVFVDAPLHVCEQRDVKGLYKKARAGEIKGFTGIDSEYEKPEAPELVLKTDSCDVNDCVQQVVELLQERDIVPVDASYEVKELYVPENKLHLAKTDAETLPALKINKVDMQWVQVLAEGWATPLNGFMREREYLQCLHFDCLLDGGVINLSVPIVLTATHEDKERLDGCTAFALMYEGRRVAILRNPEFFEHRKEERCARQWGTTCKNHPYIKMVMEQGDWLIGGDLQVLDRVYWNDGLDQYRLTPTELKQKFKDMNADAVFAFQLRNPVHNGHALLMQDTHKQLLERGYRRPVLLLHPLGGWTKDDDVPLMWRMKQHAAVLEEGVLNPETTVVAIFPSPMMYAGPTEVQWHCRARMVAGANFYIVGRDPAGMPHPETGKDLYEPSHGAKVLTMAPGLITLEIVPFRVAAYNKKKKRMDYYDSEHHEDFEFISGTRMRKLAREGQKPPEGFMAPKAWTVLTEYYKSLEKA

- binding (LMO4): binds
- binding [1]: binds
B1: carboxy terminus of MTA1s (yeast two-hybrid bait) (peptide)
chain: MSSLRILLDILEEIWWLENANPVRWREARTKPQ
